Test results as given in patent US20140161807A1.
Results are given in words; binding and its absence hold for the method and conditions named. For some of these results: Binding seen in cells or lysates may run through a third protein. Some entries that bind do so weakly or less than the wild type. Where a sequence is shown, tags or fusion partners need not be part of it.

Amino acid sequences for entries named in this document (tags omitted). Residues count along the entry.
UniProt Q91ZX7, residues 20-4545: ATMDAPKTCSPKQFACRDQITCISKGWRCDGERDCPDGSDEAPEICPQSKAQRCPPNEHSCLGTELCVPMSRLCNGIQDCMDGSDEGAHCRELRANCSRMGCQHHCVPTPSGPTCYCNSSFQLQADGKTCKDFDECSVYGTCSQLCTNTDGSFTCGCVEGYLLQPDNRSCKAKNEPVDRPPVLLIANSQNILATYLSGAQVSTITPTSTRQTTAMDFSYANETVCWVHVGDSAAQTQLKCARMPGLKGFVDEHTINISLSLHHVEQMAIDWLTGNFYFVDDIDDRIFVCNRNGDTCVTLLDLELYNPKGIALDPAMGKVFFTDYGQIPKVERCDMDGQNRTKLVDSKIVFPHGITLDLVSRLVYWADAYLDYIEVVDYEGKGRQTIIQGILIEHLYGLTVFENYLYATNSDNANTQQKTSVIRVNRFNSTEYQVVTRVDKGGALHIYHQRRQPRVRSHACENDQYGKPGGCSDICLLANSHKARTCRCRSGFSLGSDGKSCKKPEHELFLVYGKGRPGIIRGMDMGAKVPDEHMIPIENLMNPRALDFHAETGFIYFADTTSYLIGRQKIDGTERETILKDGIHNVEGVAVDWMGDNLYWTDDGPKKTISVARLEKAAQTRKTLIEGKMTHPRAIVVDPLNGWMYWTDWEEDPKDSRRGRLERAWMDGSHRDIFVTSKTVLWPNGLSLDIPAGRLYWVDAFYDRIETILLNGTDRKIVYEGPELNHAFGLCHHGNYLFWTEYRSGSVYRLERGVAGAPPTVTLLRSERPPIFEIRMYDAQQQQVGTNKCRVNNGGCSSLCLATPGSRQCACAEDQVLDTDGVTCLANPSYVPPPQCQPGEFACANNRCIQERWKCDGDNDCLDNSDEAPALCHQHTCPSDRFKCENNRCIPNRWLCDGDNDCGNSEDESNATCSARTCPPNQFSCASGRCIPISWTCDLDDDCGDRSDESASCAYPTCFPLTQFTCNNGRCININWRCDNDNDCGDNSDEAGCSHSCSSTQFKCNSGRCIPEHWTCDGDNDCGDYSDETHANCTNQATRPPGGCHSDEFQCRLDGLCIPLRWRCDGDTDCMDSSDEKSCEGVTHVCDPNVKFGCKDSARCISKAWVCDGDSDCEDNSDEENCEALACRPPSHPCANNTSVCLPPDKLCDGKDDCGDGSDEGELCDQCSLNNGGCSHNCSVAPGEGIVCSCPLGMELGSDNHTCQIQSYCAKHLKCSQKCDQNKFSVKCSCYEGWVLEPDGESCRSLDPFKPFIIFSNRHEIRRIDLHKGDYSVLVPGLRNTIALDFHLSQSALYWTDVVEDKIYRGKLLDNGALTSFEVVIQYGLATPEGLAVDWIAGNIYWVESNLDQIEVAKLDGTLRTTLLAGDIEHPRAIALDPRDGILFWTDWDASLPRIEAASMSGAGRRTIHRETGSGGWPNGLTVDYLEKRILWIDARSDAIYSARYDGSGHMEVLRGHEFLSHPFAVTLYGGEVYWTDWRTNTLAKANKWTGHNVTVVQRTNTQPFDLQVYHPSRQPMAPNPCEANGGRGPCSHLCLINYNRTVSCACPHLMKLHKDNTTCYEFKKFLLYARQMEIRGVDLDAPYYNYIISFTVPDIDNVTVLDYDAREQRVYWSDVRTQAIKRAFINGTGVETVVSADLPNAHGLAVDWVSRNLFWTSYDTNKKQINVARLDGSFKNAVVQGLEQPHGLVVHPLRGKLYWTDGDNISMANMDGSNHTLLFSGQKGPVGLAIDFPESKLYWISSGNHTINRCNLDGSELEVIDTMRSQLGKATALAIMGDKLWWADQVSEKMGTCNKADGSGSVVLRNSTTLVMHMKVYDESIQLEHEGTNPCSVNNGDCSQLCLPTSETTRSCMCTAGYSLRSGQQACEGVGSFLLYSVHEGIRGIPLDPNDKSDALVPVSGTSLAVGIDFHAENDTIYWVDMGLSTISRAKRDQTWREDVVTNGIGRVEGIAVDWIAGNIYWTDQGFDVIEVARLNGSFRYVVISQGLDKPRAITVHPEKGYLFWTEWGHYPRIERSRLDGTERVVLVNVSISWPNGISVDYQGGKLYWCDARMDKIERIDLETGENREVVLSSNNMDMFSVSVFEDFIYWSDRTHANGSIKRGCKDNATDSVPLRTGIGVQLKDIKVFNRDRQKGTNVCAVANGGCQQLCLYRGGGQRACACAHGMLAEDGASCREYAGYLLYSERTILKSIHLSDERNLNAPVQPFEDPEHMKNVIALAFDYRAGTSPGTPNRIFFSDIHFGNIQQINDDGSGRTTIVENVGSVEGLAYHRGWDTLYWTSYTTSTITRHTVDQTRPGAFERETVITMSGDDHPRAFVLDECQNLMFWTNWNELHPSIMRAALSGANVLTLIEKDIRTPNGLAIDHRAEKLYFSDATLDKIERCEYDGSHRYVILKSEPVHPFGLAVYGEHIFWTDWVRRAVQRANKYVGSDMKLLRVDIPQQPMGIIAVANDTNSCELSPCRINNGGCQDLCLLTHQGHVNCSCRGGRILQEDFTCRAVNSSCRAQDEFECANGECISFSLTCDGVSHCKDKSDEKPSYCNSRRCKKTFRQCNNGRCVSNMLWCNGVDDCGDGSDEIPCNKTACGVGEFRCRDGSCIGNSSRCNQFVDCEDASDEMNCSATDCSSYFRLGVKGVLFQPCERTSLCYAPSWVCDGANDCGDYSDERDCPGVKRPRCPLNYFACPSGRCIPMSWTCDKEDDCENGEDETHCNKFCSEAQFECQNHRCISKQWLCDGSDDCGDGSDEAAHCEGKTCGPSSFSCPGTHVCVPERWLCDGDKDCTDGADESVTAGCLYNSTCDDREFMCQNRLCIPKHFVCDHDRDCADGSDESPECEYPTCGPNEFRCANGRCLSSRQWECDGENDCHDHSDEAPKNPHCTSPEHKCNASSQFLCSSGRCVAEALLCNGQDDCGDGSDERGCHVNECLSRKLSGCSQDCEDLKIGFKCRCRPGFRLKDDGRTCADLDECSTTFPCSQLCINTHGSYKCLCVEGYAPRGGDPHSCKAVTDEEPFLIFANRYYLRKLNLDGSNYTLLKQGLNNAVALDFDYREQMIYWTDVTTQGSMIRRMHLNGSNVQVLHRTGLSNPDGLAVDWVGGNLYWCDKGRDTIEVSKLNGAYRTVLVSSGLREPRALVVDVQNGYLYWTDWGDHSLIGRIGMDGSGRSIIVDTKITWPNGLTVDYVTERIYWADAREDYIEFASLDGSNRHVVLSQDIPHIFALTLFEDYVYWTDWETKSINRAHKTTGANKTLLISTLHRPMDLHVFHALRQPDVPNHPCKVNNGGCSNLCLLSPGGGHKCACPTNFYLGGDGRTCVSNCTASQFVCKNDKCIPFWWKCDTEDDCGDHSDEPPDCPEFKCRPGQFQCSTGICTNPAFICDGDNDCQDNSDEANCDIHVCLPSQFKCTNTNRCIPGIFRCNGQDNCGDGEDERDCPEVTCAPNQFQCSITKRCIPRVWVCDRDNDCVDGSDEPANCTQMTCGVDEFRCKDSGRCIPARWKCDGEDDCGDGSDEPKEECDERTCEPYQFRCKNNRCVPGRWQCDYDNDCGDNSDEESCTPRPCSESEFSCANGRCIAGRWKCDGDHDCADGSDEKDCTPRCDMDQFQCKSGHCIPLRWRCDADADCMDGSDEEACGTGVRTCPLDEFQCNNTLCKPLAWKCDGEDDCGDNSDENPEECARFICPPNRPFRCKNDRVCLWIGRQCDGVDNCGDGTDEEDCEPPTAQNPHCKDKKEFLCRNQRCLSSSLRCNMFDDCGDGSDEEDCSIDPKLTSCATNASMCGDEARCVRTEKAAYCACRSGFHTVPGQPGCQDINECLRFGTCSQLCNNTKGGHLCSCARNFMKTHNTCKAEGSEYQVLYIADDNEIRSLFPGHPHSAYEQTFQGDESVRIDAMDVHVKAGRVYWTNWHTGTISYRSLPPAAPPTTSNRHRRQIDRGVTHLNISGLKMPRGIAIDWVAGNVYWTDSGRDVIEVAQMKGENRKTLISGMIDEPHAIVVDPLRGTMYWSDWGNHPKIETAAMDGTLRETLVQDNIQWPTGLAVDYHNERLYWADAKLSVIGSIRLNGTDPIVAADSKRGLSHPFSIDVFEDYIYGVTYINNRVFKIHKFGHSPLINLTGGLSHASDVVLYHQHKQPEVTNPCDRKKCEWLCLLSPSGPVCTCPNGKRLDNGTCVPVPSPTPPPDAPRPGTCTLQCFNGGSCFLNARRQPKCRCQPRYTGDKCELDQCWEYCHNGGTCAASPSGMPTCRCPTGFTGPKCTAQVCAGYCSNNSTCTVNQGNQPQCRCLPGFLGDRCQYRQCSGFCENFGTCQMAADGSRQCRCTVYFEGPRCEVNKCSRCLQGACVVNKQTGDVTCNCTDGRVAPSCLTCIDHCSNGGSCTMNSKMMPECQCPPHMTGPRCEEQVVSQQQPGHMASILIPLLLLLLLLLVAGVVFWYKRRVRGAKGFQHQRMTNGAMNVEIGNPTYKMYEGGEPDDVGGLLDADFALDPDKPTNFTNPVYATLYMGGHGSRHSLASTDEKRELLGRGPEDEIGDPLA

Columns and labels:
[1] = target: Full-length LRP1 purified from rat liver (rat) (UniProt G3V928); experiment: MAG-Fc on Protein A-Sepharose incubated with purified LRP1, immunoblot for LRP1
[2] = target: LRP1 in extracts of N20.1 oligodendroglial cells (UniProt Q91ZX7); experiment: co-precipitation of LRP1 with MAG-Fc from extracts of N20.1 cells, 48 and 72 h after p75NTR siRNA
[3] = target: CIV-Fc (fourth cluster of complement-like repeats of human LRP1, amino acids 3331-3778, as Fc fusion protein) (human) (UniProt Q07954); experiment: dot blot: 1 µg CIV-Fc on nitrocellulose, MAG-Fc in solution, MAG-specific antibody
[4] = target: LRP1 of mouse N2a neuroblastoma cells (full-length LRP1 in N2a cell extracts and on N2a cells) (mouse) (UniProt Q91ZX7); experiment: pull-down from N2a cell extracts with MAG-Fc on Protein A-Sepharose, immunoblot for LRP1
[5] = target: LRP1 in extracts of N20.1 oligodendroglial cells (UniProt Q91ZX7); experiment: affinity precipitation from N20.1 cell extracts with MAG-Fc on Protein A-Sepharose, immunoblot for LRP1
[6] = target: LRP1 in extracts of N20.1 oligodendroglial cells (UniProt Q91ZX7); experiment: co-precipitation of LRP1 with MAG-Fc from extracts of N20.1 cells, 48 or 72 h after p75NTR siRNA
[7] = target: CII-Fc (second cluster of complement-like repeats of human LRP1, amino acids 804-1185, as Fc fusion protein) (human) (UniProt Q07954); experiment: dot blot: 1 µg CII-Fc on nitrocellulose, MAG-Fc in solution, MAG-specific antibody

Measured: binding

B1: MAG-Fc (full length rat MAG expressed as Fc fusion protein) (Fc fusion, UniProt P07722 20-516, looked up, not shown: a dimerising Fc or GST)
chain: GHWGAWMPSSISAFEGTCVSIPCRFDFPDELRPAVVHGVWYFNSPYPKNYPPVVFKSRTQVVHESFQGRSRLLGDLGLRNCTLLLSTLSPELGGKYYFRGDLGGYNQYTFSEHSVLDIINTPNIVVPPEVVAGTEVEVSCMVPDNCPELRPELSWLGHEGLGEPTVLGRLREDEGTWVQVSLLHFVPTREANGHRLGCQAAFPNTTLQFEGYASLDVKYPPVIVEMNSSVEAIEGSHVSLLCGADSNPPPLLTWMRDGMVLREAVAESLYLDLEEVTPAEDGIYACLAENAYGQDNRTVELSVMYAPWKPTVNGTVVAVEGETVSILCSTQSNPDPILTIFKEKQILATVIYESQLQLELPAVTPEDDGEYWCVAENQYGQRATAFNLSVEFAPIILLESHCAAARDTVQCLCVVKSNPEPSVAFELPSRNVTVNETEREFVYSERSGLLLTSILTLRGQAQAPPRVICTSRNLYGTQSLELPFQGAHRLMWAKIGP
modifications: radioiodinated (125I) in the internalization assay only
binds: [1] | [2] | [3] | [4] | [5] | [6] | [7]
